Earlier results in PMC4433340 (PLoS Neglected Tropical Diseases, 2015).

Tested on: Trypanosoma cruzi
Parameters: method as in PMID 19735656
Conditions: read-out: IC50 for trypanocidal action; cited from earlier work

Compound: O=C(Cn1ccnc1[N+](=O)[O-])NCc1ccccc1 [Benznidazole]
- IC50: 20 µM
